Reference: the supplement of paper PMC10849652
The list shows a part of the results.

Amino acid sequences for entries named in this document (tags omitted). A change or cut given only in a name is not applied to a line headed by its entry.
UniProt Q5JTJ3: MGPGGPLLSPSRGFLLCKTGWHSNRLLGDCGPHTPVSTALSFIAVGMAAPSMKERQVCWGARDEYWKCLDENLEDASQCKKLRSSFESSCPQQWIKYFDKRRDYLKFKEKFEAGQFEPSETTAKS
UniProt Q9UP83: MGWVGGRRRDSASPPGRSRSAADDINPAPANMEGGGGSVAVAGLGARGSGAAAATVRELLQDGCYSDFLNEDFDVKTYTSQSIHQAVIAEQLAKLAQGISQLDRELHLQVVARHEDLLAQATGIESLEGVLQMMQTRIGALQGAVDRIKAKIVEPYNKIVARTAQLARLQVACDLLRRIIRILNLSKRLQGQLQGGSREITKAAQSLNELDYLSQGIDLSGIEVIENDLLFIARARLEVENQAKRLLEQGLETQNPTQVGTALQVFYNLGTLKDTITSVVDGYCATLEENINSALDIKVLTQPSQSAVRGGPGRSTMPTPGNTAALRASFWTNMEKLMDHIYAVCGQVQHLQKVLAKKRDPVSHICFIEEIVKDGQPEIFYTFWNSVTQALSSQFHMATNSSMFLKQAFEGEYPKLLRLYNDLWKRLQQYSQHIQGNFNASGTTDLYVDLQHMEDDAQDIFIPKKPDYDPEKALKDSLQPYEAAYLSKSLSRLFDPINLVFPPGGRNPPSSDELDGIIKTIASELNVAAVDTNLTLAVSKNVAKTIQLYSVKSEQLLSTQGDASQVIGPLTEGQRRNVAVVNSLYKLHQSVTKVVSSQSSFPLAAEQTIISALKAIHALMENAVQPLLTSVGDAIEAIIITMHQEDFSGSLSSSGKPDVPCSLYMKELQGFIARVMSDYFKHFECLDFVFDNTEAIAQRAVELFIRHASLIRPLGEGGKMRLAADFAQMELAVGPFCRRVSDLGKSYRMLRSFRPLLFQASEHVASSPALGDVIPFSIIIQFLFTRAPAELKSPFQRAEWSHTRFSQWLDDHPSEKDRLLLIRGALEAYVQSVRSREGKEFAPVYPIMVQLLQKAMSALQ
UniProt Q9Y2B0: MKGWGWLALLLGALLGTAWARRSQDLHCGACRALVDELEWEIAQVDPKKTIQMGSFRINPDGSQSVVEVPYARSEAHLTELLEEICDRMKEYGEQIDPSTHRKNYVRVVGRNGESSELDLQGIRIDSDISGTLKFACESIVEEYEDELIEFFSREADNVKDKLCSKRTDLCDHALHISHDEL
UniProt O75976: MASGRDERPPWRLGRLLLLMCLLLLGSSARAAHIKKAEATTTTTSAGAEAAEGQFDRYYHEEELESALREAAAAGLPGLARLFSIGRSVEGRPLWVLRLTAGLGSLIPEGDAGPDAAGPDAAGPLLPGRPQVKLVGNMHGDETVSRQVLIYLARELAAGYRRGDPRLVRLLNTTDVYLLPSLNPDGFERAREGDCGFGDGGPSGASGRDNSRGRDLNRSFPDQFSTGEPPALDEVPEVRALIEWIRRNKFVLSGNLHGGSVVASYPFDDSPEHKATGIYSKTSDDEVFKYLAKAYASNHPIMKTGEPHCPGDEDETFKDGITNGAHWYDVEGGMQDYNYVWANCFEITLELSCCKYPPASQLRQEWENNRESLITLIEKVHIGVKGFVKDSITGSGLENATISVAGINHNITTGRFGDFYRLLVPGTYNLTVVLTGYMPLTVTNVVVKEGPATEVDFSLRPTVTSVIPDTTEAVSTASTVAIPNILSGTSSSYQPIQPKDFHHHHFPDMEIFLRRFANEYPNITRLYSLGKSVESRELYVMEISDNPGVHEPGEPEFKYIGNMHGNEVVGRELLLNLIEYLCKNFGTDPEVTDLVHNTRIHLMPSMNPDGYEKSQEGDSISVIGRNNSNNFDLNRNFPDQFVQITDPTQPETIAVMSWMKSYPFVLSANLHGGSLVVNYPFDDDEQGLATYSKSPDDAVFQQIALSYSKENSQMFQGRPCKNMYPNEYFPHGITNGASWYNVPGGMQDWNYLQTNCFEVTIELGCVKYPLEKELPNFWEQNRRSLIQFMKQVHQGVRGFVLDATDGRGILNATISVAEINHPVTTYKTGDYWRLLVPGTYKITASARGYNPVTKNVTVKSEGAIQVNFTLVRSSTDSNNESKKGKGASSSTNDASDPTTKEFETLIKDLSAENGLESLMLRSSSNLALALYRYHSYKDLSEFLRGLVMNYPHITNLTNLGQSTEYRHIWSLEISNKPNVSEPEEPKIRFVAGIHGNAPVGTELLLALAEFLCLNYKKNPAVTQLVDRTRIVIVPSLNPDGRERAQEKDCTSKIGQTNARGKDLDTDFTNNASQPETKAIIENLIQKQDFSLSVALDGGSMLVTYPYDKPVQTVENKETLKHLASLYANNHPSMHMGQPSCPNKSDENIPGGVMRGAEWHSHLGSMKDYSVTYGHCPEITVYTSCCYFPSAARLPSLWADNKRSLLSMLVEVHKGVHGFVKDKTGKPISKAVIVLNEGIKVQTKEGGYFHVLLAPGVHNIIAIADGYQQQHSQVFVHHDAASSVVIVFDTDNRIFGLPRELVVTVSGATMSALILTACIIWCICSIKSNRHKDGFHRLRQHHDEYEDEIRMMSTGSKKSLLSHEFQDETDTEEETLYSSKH
UniProt P14854, whole entry, looked up: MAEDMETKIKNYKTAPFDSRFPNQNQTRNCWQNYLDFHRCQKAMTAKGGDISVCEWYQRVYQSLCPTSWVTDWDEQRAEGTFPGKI
UniProt Q9H9E3: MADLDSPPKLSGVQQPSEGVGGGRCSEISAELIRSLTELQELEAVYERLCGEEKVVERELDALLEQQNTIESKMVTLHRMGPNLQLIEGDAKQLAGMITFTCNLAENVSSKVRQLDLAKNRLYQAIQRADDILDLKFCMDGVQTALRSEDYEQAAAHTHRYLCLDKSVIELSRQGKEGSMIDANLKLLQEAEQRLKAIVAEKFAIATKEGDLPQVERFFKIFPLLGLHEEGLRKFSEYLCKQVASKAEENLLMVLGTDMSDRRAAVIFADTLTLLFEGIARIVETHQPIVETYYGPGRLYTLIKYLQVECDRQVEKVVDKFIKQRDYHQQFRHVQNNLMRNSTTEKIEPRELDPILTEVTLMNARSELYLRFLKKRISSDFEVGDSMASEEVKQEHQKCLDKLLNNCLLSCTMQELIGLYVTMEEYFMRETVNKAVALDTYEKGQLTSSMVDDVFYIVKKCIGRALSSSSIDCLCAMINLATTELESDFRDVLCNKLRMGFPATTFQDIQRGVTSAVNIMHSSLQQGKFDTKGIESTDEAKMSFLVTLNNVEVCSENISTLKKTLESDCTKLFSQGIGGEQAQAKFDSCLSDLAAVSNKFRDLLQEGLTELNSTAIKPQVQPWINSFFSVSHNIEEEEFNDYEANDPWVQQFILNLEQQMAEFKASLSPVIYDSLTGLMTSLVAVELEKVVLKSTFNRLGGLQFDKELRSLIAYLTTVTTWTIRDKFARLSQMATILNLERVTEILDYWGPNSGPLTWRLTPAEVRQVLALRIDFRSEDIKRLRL
UniProt O75131: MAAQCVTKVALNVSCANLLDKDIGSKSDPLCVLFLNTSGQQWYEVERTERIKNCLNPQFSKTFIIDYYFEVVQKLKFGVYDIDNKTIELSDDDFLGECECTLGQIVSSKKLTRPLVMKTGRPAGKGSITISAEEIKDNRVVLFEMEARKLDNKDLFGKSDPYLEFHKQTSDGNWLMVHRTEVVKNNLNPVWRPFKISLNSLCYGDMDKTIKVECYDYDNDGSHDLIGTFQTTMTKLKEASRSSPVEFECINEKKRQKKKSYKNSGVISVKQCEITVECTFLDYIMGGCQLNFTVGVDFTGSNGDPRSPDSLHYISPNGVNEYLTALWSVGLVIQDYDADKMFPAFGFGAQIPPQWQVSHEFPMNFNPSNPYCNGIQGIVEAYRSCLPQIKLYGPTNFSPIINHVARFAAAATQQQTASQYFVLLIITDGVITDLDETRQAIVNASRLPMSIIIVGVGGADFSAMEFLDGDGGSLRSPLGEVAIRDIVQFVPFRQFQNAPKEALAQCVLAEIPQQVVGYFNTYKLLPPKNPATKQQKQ
UniProt Q99829: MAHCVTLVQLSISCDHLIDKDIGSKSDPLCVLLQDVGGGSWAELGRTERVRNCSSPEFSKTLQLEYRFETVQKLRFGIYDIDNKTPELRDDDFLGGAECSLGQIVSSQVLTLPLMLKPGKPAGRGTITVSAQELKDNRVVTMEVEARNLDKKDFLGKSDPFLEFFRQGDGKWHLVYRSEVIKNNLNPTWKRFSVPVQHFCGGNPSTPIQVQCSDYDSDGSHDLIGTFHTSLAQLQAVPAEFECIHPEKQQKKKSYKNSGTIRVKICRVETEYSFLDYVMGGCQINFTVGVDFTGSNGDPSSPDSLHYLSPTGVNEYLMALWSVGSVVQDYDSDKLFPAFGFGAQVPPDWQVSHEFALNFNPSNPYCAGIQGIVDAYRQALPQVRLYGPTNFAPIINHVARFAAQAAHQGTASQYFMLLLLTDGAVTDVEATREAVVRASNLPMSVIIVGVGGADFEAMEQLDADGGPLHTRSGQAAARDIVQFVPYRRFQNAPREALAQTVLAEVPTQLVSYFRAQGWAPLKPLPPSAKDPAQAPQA
UniProt Q9Y2Z9: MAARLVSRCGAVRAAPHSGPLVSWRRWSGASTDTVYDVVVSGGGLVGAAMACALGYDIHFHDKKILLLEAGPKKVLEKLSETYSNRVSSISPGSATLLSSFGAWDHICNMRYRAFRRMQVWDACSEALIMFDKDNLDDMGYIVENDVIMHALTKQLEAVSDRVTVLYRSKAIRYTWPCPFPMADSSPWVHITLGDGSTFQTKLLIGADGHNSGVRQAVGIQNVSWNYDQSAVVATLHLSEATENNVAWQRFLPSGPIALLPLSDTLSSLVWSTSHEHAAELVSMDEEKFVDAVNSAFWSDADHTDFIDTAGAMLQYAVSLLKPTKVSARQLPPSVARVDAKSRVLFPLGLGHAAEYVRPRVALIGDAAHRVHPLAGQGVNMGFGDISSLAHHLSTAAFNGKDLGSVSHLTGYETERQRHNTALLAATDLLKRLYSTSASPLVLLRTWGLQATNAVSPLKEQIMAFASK
UniProt Q9ULV4, whole entry, looked up: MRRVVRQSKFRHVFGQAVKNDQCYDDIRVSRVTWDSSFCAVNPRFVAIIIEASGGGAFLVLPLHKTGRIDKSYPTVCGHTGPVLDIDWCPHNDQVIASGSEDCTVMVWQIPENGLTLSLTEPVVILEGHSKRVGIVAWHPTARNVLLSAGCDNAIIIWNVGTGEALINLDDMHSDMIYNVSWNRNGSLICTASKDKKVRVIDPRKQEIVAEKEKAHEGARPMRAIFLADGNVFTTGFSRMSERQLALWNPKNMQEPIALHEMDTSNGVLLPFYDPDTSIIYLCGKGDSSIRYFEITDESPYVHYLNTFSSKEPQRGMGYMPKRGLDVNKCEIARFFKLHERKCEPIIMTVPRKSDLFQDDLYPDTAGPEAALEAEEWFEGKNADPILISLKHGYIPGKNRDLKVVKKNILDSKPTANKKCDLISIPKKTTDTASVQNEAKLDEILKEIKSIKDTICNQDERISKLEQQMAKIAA
UniProt Q14019: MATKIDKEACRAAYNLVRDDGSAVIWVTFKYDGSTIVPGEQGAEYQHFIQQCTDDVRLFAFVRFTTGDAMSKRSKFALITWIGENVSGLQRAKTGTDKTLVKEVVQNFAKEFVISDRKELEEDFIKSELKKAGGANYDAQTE
UniProt Q9Y2V7: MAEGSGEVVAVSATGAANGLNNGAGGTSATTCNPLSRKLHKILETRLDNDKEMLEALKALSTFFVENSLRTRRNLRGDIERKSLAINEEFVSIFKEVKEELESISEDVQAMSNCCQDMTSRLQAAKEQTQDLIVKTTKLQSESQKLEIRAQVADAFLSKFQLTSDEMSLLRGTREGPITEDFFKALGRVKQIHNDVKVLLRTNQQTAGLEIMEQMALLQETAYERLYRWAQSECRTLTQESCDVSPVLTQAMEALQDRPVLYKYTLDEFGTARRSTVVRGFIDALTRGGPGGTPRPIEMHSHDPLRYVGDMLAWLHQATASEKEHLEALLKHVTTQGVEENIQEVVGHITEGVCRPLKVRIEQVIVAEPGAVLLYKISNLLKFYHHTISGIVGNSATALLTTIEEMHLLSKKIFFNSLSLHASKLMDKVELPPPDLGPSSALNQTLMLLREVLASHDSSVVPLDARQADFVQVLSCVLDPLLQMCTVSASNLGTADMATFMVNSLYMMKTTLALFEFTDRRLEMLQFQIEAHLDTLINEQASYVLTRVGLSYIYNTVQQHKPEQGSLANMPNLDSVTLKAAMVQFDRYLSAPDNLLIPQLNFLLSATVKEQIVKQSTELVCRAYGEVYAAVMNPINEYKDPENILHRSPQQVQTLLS
UniProt Q86X83, whole entry, looked up: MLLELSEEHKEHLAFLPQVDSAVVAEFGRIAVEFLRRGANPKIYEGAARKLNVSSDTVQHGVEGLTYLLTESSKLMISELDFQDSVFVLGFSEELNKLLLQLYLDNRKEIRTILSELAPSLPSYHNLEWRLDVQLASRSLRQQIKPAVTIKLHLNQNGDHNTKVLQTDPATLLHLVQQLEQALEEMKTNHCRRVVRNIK

How the values were obtained:
Experiment in all cases: log2 fold change, soluble protein after heating vs DMSO (PISA); higher = thermal stabilisation; K562 lysate, 10 uM; active = over 0.2 and 3.5 SD of the protein, either way, in both replicates (recomputed)
[1] = compound: C1=CC=C(C=C1)[C@H](COC2=CC3=C(C=C2)NC(=O)N3)NC(=O)C4=CC=CN(C4=O)CC5=CC(=C(C=C5)F)F
Method in brief: (§1)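 A 30 min treatment with 10 μM compound was applied to crude K562 extract at 1 mg/mL protein in PBS pH 7.4 with 1 mM MgCl2. Heating for 3 min spanned 48°C-58°C, after which aliquots were pooled, adjusted to 0.5% NP-40 at 4°C and spun at 21,000xg for 90 min. TMTpro 16plex LC-MS/MS of the supernatant, with channel sums equalised, gave values recorded as log-two fold change in thermal stability against solvent controls, from duplicates.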

[2] = compound: CC1=C(SC2=C1C(=N[C@H](C3=NN=C(N32)C)CC(=O)N)C4=CC=C(C=C4)Cl)C
Method in brief: as §1

[3] = compound: CC1=C2C(=CC=C1)N=C(N(C2=O)C3=CC=CC=C3C)CN4C=NC5=C(N=CN=C54)N
Method in brief: as §1

[4] = compound: Cc1sc2c(c1C)C(c1ccc(Cl)cc1)=N[C@@H](CC(=O)OC(C)(C)C)c1nnc(C)n1-2
Method in brief: as §1

[5] = compound: c1ccc([C@@H]2C[C@H]2NC2CCNCC2)cc1
Method in brief: as §1

Measured: log2 fold change

COL18A1 (UniProt P39060)
inactive: [1] 0.018 | [2] 0.052 | [3] 0.017 | [4] -0.052 | [5] 0.034

COA6 isoform 2 (UniProt Q5JTJ3)
inactive: [1] 0.076 | [2] -0.036 | [3] -0.081 | [4] -0.035 | [5] -0.023

COIL (UniProt P38432)
inactive: [1] 0.103 | [2] 0.05 | [3] 0.051 | [4] 0.041 | [5] 0.052

CPPED1 (UniProt Q9BRF8)
inactive: [1] -0.001 | [2] 0.022 | [3] -0.024 | [4] -0.076 | [5] -0.111

COPB1 (UniProt P53618)
inactive: [1] -0.014 | [2] 0.01 | [3] 0.015 | [4] -0.015 | [5] -0.037

COG5 isoform 2 (UniProt Q9UP83)
inactive: [1] 0.034 | [2] 0.045 | [3] -0.042 | [4] -0.003 | [5] 0.033

COPS7B (UniProt Q9H9Q2)
inactive: [1] 0.058 | [2] -0.017 | [3] 0 | [4] 0.029 | [5] 0.027

CNPY2 (UniProt Q9Y2B0)
inactive: [1] 0.003 | [2] -0.043 | [3] -0.041 | [4] -0.002 | [5] 0.014

CPD (UniProt O75976)
inactive: [1] 0.03 | [2] 0.012 | [3] 0.016 | [4] -0.074 | [5] -0.102

COX6B1 (UniProt P14854)
inactive: [1] 0.02 | [2] -0.04 | [3] 0.003 | [4] 0.036 | [5] 0.063

CORO7 isoform 3 (UniProt P57737)
inactive: [1] -0.003 | [2] -0.006 | [3] 0.033 | [4] 0.018 | [5] 0.036

CORO1B (UniProt Q9BR76)
inactive: [1] 0.003 | [2] 0.024 | [3] 0.016 | [4] 0.017 | [5] 0

CPS1 isoform 3 (UniProt P31327)
inactive: [1] -0.001 | [2] 0.014 | [3] 0.059 | [4] -0.154 | [5] -0.065

COG4 (UniProt Q9H9E3)
inactive: [1] 0.005 | [2] 0.034 | [3] 0.096 | [4] -0.036 | [5] 0.011

CPSF2 (UniProt Q9P2I0)
inactive: [1] -0.039 | [2] -0.003 | [3] 0.014 | [4] 0.007 | [5] -0.001

CPNE3 (UniProt O75131)
inactive: [1] 0.072 | [2] -0.047 | [3] 0.055 | [4] 0.033 | [5] -0.069

Quoted from above (2 entries):
CPSF2 (UniProt Q9P2I0)
inactive: [1] -0.039 | [2] -0.003 | [3] 0.014 | [4] 0.007 | [5] -0.001

CPNE3 (UniProt O75131)
inactive: [1] 0.072 | [2] -0.047 | [3] 0.055 | [4] 0.033 | [5] -0.069

(next part)

CPNE1 (UniProt Q99829)
inactive: [1] -0.005 | [2] 0.048 | [3] -0.009 | [4] -0.043 | [5] -0.013

CRACR2A isoform 2 (UniProt Q9BSW2)
inactive: [1] 0.064 | [2] 0.049 | [3] -0.033 | [4] 0.031 | [5] 0.001

COQ6 (UniProt Q9Y2Z9)
inactive: [1] -0.054 | [2] 0.048 | [3] 0.02 | [4] -0.017 | [5] 0.016

CORO1C isoform 3 (UniProt Q9ULV4)
inactive: [1] 0.025 | [2] -0.016 | [3] 0.001 | [4] -0.011 | [5] -0.014

COTL1 (UniProt Q14019)
inactive: [1] -0.018 | [2] -0.019 | [3] 0.01 | [4] 0.031 | [5] 0.064

CPSF3 (UniProt Q9UKF6)
inactive: [1] -0.026 | [2] -0.036 | [3] 0.008 | [4] 0.019 | [5] 0.026

COG6 (UniProt Q9Y2V7)
inactive: [1] -0.023 | [2] 0.011 | [3] 0.029 | [4] -0.032 | [5] 0.069

COMMD2 (UniProt Q86X83)
inactive: [1] 0.087 | [2] -0.001 | [3] 0.005 | [4] 0.022 | [5] 0.054
